Test results published in article PMC7066179.

Biological target: murine BR-FLAG expressed in mouse muscle by AAV9 (mouse)
Assay: co-IP; mouse tissue mitochondria with AAV9-expressed BR-FLAG, solubilized with 1% digitonin (4 g/g) in IP buffer (150 mM NaCl, 1 mM EDTA, 50 mM HEPES-KOH pH 7.4); anti-FLAG M2 resin overnight, washes with 0.1% digitonin, elution with 3XFLAG peptide; immunoblot

binding: binds
B1: UQCRC1 (endogenous, mouse mitochondria) (protein, UniProt Q9CZ13 35-480)
chain: TATFAQALQSVPETQVSILDNGLRVASEQSSHATCTVGVWIDAGSRYETEKNNGAGYFLEHLAFKGTKNRPGNALEKEVESIGAHLNAYSTREHTAYLIKALSKDLPKVVELLADIVQNSSLEDSQIEKERDVILREMQENDASMQNVVFDYLHATAFQGTPLAQAVEGPSENVRRLSRTDLTDYLNRHYKAPRMVLAAAGGVEHQQLLDLAQKHLSSVSRVYEEDAVPGLTPCRFTGSEIRHRDDALPLAHVAIAVEGPGWANPDNVTLQVANAIIGHYDCTYGGGVHLSSPLASVAVANKLCQSFQTFNISYSDTGLLGAHFVCDAMSIDDMVFFLQGQWMRLCTSATESEVTRGKNILRNALVSHLDGTTPVCEDIGRSLLTYGRRIPLAEWESRIQEVDAQMLRDICSKYFYDQCPAVAGYGPIEQLPDYNRIRSGMFWLRF

Results are given in words; binding and its absence hold for the method and conditions named. Binding seen in cells or lysates may run through a third protein. A result given as binding can be weak or reduced; the word gives no strength.
